The values that follow come from patent US20170349667A1.

Experiment [1] concerns the target c-Met IPT3-4 (ectodomain fragment) (human). In words: ELISA on coated c-Met ectodomains. For orientation: In an ELISA, binding on a coated surface is turned into a signal by an enzyme label.
In experiment [2] the target is human c-Met ECD (aa 25-932) with His tag (human). In words: ELISA: 200 ng of recombinant c-Met ECD protein coated, mAb 1 h, HRP goat anti-human antibody, TMB, OD 620 nm.
The target in experiment [3] is Llama glama c-Met ECD (aa 25-932) with His tag (Llama glama). Described as above.
The target in experiment [4] is human c-Met ECD (aa 25-932) with His tag (human). In words: ELISA on chimeric c-Met ECD.
Experiment [5] shares this target. As to the kind of experiment: ELISA, 200 ng coated c-Met ECD construct, anti-human HRP detection.
In experiment [6] the target is Decoy c-Met (extracellular domain of human c-Met) (human). As to the kind of experiment: ELISA, c-Met ectodomains coated at 1 µg/ml, HRP-Protein A.
For experiment [7], the target named is llama-human c-Met chimera LP6 (aa497-909) (human; Llama glama). In words: SPR, 48A2 coupled to CM-5 chip.
The target in experiment [8] is llama-human c-Met chimera LP7*(aa523-909), T737I (human; Llama glama). As to the kind of experiment: SPR, 48A2 coupled to CM-5 chip. (In general: In SPR one partner is held on a chip, and binding of the other changes the refractive index at the surface.)
In experiment [9] the target is llama-human c-Met chimera LP6 (aa497-909) (human; Llama glama). As to the kind of experiment: ELISA, 48A2 coated at 2 µg/ml, chimera detected with streptavidin-HRP.
Experiment [10] deals with llama-human c-Met chimera LP7*(aa523-909), T737I (human; Llama glama). The experiment is described as above.
For experiment [11], the target named is llama-human c-Met chimera L111 (aa634-909) (human; Llama glama). In words: SPR, 48A2 coupled to CM-5 chip, chimera at 10 µg/ml.
The target of experiment [12] is llama-human c-Met chimera LS2 (aa1-199) (Llama glama; human). The experiment is described as above.
For experiment [13], the target named is llama-human c-Met chimera LS3 (aa1-287) (Llama glama; human). Described as above.
Experiment [14] deals with llama-human c-Met chimera LS4 (aa1-348) (Llama glama; human). Described as above.
Experiment [15] addresses llama-human c-Met chimera LS1 (aa1-98) (Llama glama; human). The experiment is described as above.
Experiment [16] addresses llama-human c-Met chimera LS5 (aa1-448) (Llama glama; human). The description is as above.
The target in experiment [17] is c-Met SEMA-PSI (ectodomain fragment) (human). As to the kind of experiment: ELISA: SEMA-PSI coated, parental mAb, HRP goat anti-human Fc, 620 nm.
The target in experiment [18] is llama-human c-Met chimera LS2 (aa1-199) (Llama glama; human). In words: ELISA, 36C4 coated at 2 µg/ml, chimera detected with streptavidin-HRP.
Experiment [19] addresses llama-human c-Met chimera LS3 (aa1-287) (Llama glama; human). The experiment is described as above.
Experiment [20] concerns the target llama-human c-Met chimera LS4 (aa1-348) (Llama glama; human). The description is as above.
The target in experiment [21] is llama-human c-Met chimera LS5 (aa1-448) (Llama glama; human). Described as above.
Experiment [22] concerns the target llama-human c-Met chimera LS2 (aa1-199) (Llama glama; human). As to the kind of experiment: SPR, 36C4 coupled to CM-5 chip.
The target in experiment [23] is llama-human c-Met chimera LS3 (aa1-287) (Llama glama; human). In words: SPR, 36C4 coupled to CM-5 chip.
For experiment [24], the target named is llama-human c-Met chimera LS4 (aa1-348) (Llama glama; human). In words: SPR, 36C4 coupled to CM-5 chip.
Experiment [25] has as its target llama-human c-Met chimera LS5 (aa1-448) (Llama glama; human). As to the kind of experiment: SPR, 36C4 coupled to CM-5 chip.
For experiment [26], the target named is c-Met SEMA-PSI (ectodomain fragment) (human). In words: ELISA, SEMA-PSI coated, anti-human Fc detection.
Experiment [27] deals with c-Met SEMA domain (ectodomain fragment) (human). As to the kind of experiment: ELISA, c-Met ectodomains coated at 1 µg/ml, HRP-Protein A.
Experiment [28] shares this target. As to the kind of experiment: ELISA, coated c-Met ectodomains.
Experiment [29] deals with c-Met SEMA-PSI-IPT1-2 (ectodomain fragment) (human). As to the kind of experiment: ELISA: c-Met ectodomain coated at 1 µg/ml, mAb in three-fold dilutions from 1 µg/ml, HRP-Protein A, TMB, OD 450.
The target in experiment [30] is c-Met SEMA domain (ectodomain fragment) (human). The experiment is described as above.
In experiment [31] the target is c-Met SEMA-PSI (ectodomain fragment) (human). The experiment is described as above.
The target in experiment [32] is llama-human c-Met chimera L111 (aa634-909) (human; Llama glama). In words: SPR, 36C4 coupled to CM-5 chip, chimera at 10 µg/ml.
Experiment [33] deals with llama-human c-Met chimera L110 (aa608-909) (human; Llama glama). The description is as above.
Experiment [34] addresses llama-human c-Met chimera LP6 (aa497-909) (human; Llama glama). Described as above.
Experiment [35] addresses llama-human c-Met chimera L18 (aa540-909) (human; Llama glama). The experiment is described as above.
For experiment [36], the target named is llama-human c-Met chimera LS1 (aa1-98) (Llama glama; human). The description is as above.
Experiment [37] deals with llama-human c-Met chimera L19 (aa572-909) (human; Llama glama). Described as above.
Experiment [38] deals with llama-human c-Met chimera LP7*(aa523-909), T737I (human; Llama glama). Described as above.

No constants are given. Whether binding was seen depends on the method and setting. For part of these data: A result given as binding can be weak or reduced; the word gives no strength.

B1: 13E6 mAb (antibody, human IgG1, V domains shown)
VH: QVQLQESGGDLVQPGGSLRLSCAASGFTFDDYVMNWVRQAPGKGLEWISAINWNGGSTYYAESMKGRFTISRDNAKNTLYLQMYSLQSDDTAVYYCVKDTVVSGNGYWGQGTQVTVSS
VL: QSVLTQPPSVSGTLGKTVTISCAGTSSDIGDYNYVSWYQQLPGTAPKLLIYDVNKRASGIPDRFSGSKSGNTASLSISGLQSEDEADYYCASYRSRNDYAFGGGTKLTVL
Consider B1, for which the binding entry in experiment [1] is listed as “no binding (tested: 1 µg/ml)”; in experiment [2], “binds”; in [3], “no binding (tested: about 1e-7 M)”; in [4], “binds”; in experiment [5] it was “binds”; in experiment [6] it was “binds”.

B2: 48A2 mAb (antibody, human IgG1, V domains shown)
VH: EVQLVQPGVELRNPGASVKVSCKASGYIFTMNSIDWVRQAPGQGLEWMGRIDPEDGGTKYAQKFQGRVTFTADTSTSTAYVELNSLRSEDTAVYYCARVDDYYLGYDYWGQGTQVTVSS
VL: DIVMTQTPTSVTASAGDKVTINCKSSQSVLFSSNQKNYLAWYQQRLGQSPRLLIYWASIRESGVPDRFSGSGSATDFTLTISNFQPEDAAVYYCQQGYSFPYSFGSGTRLEIR
Consider B2, for which the binding result in experiment [7] is recorded as “no binding (tested: 10 µg/ml)”; in experiment [8], “no binding (tested: 10 µg/ml)”; in experiment [9], “no binding”; in experiment [10] it was “no binding”; in experiment [11], “binds”; in experiment [12], “binds”. Further, the binding result in [13], in experiment [14], in experiment [15] and in experiment [16] was “binds” each time.

B3: 36C4 mAb (antibody, human IgG1, V domains shown)
VH: QVQLVESGPGLVKPSQTLSLTCAVSGGSITTNYYYWSWIRQSPGKGLEWMGVIAYDGSTDYSPSLKSRTSISRDTSKNQFSLQLSSVTPEDTAVYYCARDVRVIATGWATANALDAWGQGTLVTVSS
VL: QSVLTQPPSVSGSPGKTVTISCAGTSSDVGYGNYVSWYQQLPGTAPKLLIFAVSYRASGIPDRFSGSKSGNTAFLTISGLQSEDEADYYCASYRSSNNAAVFGGGTHLTVL
In the case of B3, the binding entry in experiment [3] is listed as “no binding (tested: about 1e-7 M)”; in experiment [17], “binds”; in experiment [18] it was “no binding”; in [19], “no binding”; in experiment [20], “no binding”; in experiment [21] it was “no binding”. In addition, the binding entry in experiment [22] is recorded as “no binding (tested: 10 µg/ml)”; in experiment [23] it was “no binding (tested: 10 µg/ml)”; in experiment [24] it was “no binding (tested: 10 µg/ml)”; in experiment [25] it was “no binding (tested: 10 µg/ml)”; in experiment [26], “binds”; in [27], “binds”. Further, the binding entry in [28], in [29], in experiment [30], in [31], in experiment [32] and in experiment [33] was “binds” in each case. Further, the binding result in [34], in [35], in [36], in [37] and in experiment [38] was “binds” in each case.
